Reference: PubChem BioAssay AID493014 (National Center for Advancing Translational Sciences (NCATS), 2011)
The other results are listed elsewhere or left out. Further columns of the screen follow, without active or inactive calls. Compounds called inactive in the main read-out are mostly missing here. The note in brackets gives the kind of curve behind each potency; many fits are weak.

Assay: qHTS Assay to Find Inhibitors of Chronic Active B-Cell Receptor Signaling
Settings: ABC-DLBCL IkBa-CBG/CBR reporter, luminescence ratio (green luciferase fused to IkBa over red control in TMD8 lymphoma cells), 4 h
Method in brief: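 Doxycycline induced both beetle luciferases in TMD8 lymphoma cells; IKK-driven degradation limits the IkappaBalpha-fused green signal, while red luminescence normalises for cell number and nonspecific effects. Compounds tested up to 46 uM, 4 hrs.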

[1] = measured here: CBR red luminescence, cell number
[2] = measured here: IkBa-CBG green luminescence

SMILES	AC50 [1]	AC50 [2]
O=C(Cc1ccc(-n2c(=O)c3ccccc3n(Cc3cccc([N+](=O)[O-])c3)c2=O)cc1)NCC1CCCO1 (centres undefined)	29.1 µM [rising, single point]	29.1 µM [falling, partial curve, poor fit]
CN1/C(=C/C(=O)CSc2ccccc2C(=O)O)C(C)(C)c2ccccc21	35.5 µM [falling, single point]	–
NCC12CC3CC(CC(O)(C3)C1)C2	1.3 µM [rising, partial curve, poor fit]	–
Cc1ccc(S(=O)(=O)/N=C2/NC(=O)/C(=C/c3ccc(Br)o3)S2)cc1	29.1 µM [rising, single point]	–
NC1=NC[C@@H](Cc2ccc(O)cc2)N1CC1CCCCC1	31.6 µM [rising, single point]	–
CC(=O)c1ccc(NC(=S)NC(=O)Cc2ccc(Cl)cc2)cc1	6.31 µM [rising, single point]	–
Cc1ccn2cc(-c3cccc(NC(=O)c4ccccc4)c3)nc2c1	0.82 µM [rising, full curve]	–
CC(NC(=O)c1ccc(S(=O)(=O)NCc2ccco2)cc1)c1ccc(F)cc1 (centres undefined)	4.61 µM [rising, partial curve, poor fit]	20.6 µM [falling, partial curve, poor fit]
COc1ccc(C(C)=O)cc1COc1cccnc1[N+](=O)[O-]	4.47 µM [falling, full curve, poor fit]	–
C/C(=N\NC(=O)c1ccccc1F)c1ccc(C#N)cc1	14.1 µM [falling, partial curve, poor fit]	–
O=S(=O)(c1ccc(F)cc1)N1CC=C(c2ccccc2)CC1	0.501 µM [falling, partial curve, poor fit]	–
CN(C(=O)c1ccccc1OCc1ccc(F)cc1)c1c(N)n(Cc2ccccc2)c(=O)[nH]c1=O	3.26 µM [falling, full curve]	–
Cc1ccccc1N(Cc1ccccc1F)S(C)(=O)=O	3.26 µM [rising, full curve, poor fit]	–
COC(=O)c1nnn(-c2nonc2N)c1COc1ccc(C=O)cc1OC	17.8 µM [rising, single point]	25.1 µM [falling, single point]
COc1ccc(C(=S)N2CCOCC2)cc1OC(=O)c1ccc([N+](=O)[O-])cc1[N+](=O)[O-]	25.1 µM [falling, single point]	–
Cc1ccc(C(=O)N(CC#N)CC#N)cc1C	0.562 µM [rising, full curve]	–
CCOC(=O)N1CCN(C(=O)c2ccc(CS(=O)(=O)c3c(Cl)cccc3Cl)o2)CC1	5.8 µM [rising, full curve, poor fit]	–
O=C(NCc1cccnc1)c1ccc(NC(=O)c2ccco2)cc1	1.84 µM [rising, partial curve, poor fit]	–
CCCCOCCCNC(=O)c1ccccc1OCC	0.082 µM [rising, full curve, poor fit]	–
CC1Oc2ccccc2C=C1/C=N/NC(=O)c1ccccc1O (centres undefined)	3.66 µM [falling, partial curve]	–

Compounds shown so far that have a Cl atom:
SMILES	AC50 [1]	AC50 [2]
CC(=O)c1ccc(NC(=S)NC(=O)Cc2ccc(Cl)cc2)cc1	6.31 µM [rising, single point]	–
CCOC(=O)N1CCN(C(=O)c2ccc(CS(=O)(=O)c3c(Cl)cccc3Cl)o2)CC1	5.8 µM [rising, full curve, poor fit]	–

The results go on.

SMILES	AC50 [1]	AC50 [2]
Cc1ccc(C#N)c(SCc2ccccc2[N+](=O)[O-])n1	–	9.2 µM [falling, partial curve]
O=C(Nc1cccc2ccccc12)c1ccc(Br)o1	25.9 µM [falling, partial curve, poor fit]	–
Cc1ccc(C)c(N2C(=O)N(Cc3c(F)cccc3Cl)c3ccccc3S2(=O)=O)c1	2.51 µM [falling, full curve, poor fit]	–
CC(=O)Nc1ccc(NC(=S)Nc2ccccc2)cc1	5.17 µM [rising, partial curve, poor fit]	–
O=C(COC(=O)c1ccccc1NCCO)NCC1CCCCC1	16.4 µM [falling, single point]	–
Cc1ccc(C(=O)NCCc2c[nH]c3ccccc23)c(C)c1	25.1 µM [falling, partial curve, poor fit]	–
CSc1ccccc1C(=O)OCC(=O)Nc1cccnc1Cl	29.1 µM [falling, single point]	–
CN(CC(=O)Nc1cccc(S(=O)(=O)N2CCCC2)c1)CC(=O)Nc1ccc(Cl)c(C(F)(F)F)c1	25.9 µM [falling, single point]	–
CC1=NN(C(=O)c2ccc(Br)cc2)C(O)(c2ccccc2)C1 (centres undefined)	15.8 µM [falling, partial curve, poor fit]	–
Cc1ccc(/C=N/NC(=O)c2ccccc2OCc2cccc(Br)c2)o1	15.8 µM [falling, single point]	–
CCCNC(=O)CCNC(=O)c1ccc(C(C)(C)C)cc1	6.31 µM [rising, partial curve, poor fit]	–
O=C1CC(Sc2nnnn2-c2ccccc2)C(=O)N1c1cccc(Cl)c1 (centres undefined)	18.4 µM [falling, single point]	29.1 µM [rising, partial curve, poor fit]
Cc1noc(C)c1COc1ccc(CC(=O)NCc2ccccc2)cc1	31.6 µM [rising, single point]	15.8 µM [falling, partial curve]
CCOC(=O)c1sc(Nc2cccc(C)c2C)nc1C	6.31 µM [falling, partial curve, poor fit]	–
CCCCCC1CC(CC(=O)Nc2ccc([N+](=O)[O-])cc2)OC1=O (centres undefined)	25.1 µM [falling, single point]	–
Cc1ccc(NC(=O)c2cc(-c3ccco3)on2)cc1	11.2 µM [falling, partial curve, poor fit]	–
CO/N=C/c1ccc(Oc2ccc(C)cc2)c([N+](=O)[O-])c1	35.5 µM [rising, single point]	–
COc1cc2nc(CCc3ccccc3)oc(=O)c2cc1OC	22.4 µM [falling, single point]	–
COc1ccc(-c2ccc3ccccc3n2)cc1	0.447 µM [rising, full curve, poor fit]	–
